Key:
pThr231Tau/tTau [1] = test: pThr231Tau/tTau in APP-Δcholesterol neurons; type: cell-based, human; details: 10 μM, 3 days
Source text: FIGS. 4A-4F show regulation of Aβ by CE Is Mediated by a Cholesterol Binding Domain in APP. […] Green indicates amino acid sequence. Red arrow indicates CRISPR/Cas9 cut site. […] Two E693A (line 3D9 and 2B2) and one F691A+E693A line (line D12) were generated, as well as two non-gene-edited, but clonally expanded, WT lines (B10 and B11). FIGS. 4D-4F show measurements made using APP-Δcholesterol neurons with the following genotypes: WT (average from 2 independent lines), E693A (2 independent lines), and F691A+E693A (1 line) (mean±SEM, n R 3 per line). (D) Relative secreted Ab42 levels in conditioned media from purified CD184^−, CD44^−, and CD24^+ neurons (mean±SEM, n≥3 per line).

pThr231Tau/tTau [2] = test: pThr231Tau/tTau ratio (ELISA) in APP^dp iPSC-derived FAD neurons; type: cell-based, human; details: APP^dp1-6 neurons, 5 μM, 5 days
APP^dp1-6 neurons = test: cell viability of APP^dp1-6 iPSC-derived neurons

Compound | pT231Tau/tTau ratio (pThr231Tau/tTau [1]) | pThr231Tau/tTau, confirmed non-toxic screening hit (pThr231Tau/tTau [2]) | rescue of the effect of atorvastatin on cell viability (APP^dp1-6 neurons)
CC(C)c1c(C(=O)Nc2ccccc2)c(-c2ccccc2)c(-c2ccc(F)cc2)n1CC[C@@H](O)C[C@@H](O)CC(=O)O [atorvastatin] | still decreased | hit-list | 
mevalonate [MVA] |  |  | without rescuing
